# Laboratory results as given in article PMC9256790 (Molecular cancer therapeutics, 2022).
# Test system: MDA-MB-231
# Test: Cell proliferation
# Type: cell-based
# Conditions: Homo sapiens, MDA-MB-231, read-out: Mean IC50 ± SEM
smiles,measurement,value
CC(=O)O[C@H]1C(=O)[C@@]2(C)[C@H]([C@H](OC(=O)c3ccccc3)[C@]3(O)C[C@H](OC(=O)[C@H](O)[C@@H](NC(=O)c4ccccc4)c4ccccc4)C(C)=C1C3(C)C)[C@]1(OC(C)=O)CO[C@@H]1C[C@@H]2O [Paclitaxel],IC50,900 ± 100 pM
